# Assay results taken from PubChem BioAssay AID624297 (National Center for Advancing Translational Sciences (NCATS), 2012).
# Several values for one entry are separate records, joined by “and”; a condition that tells them apart may be missing. Equal entries are not always repeated. About 6,200 (1.8%) of roughly 340,000 compounds were called active. The shares of active, inactive and inconclusive entries below differ from those in the screen. Calls follow the shape of the dose curve; as a rule, active = well fitted activation curve with a large enough effect; inconclusive = small, poorly fitted or top-dose-only effect; inactive = no such curve, though single readings can be large or run the other way. Potencies of inconclusive entries are doubtful fits and often do not repeat.
# Test: A quantitative high throughput screen for small molecules that induce DNA re-replication in SW480 colon adenocarcinoma cells. Also: nearly all actives have a fitted effect of over 55% in size. As to re-replication activation: % of control where 0% means no effect.
# Conditions: Hoechst DNA content imaging, 48 h; re-replication activation: at 46.1 µM (top of the series) unless noted
# Outline: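 Cells (250 per well) received 23 nL compound or DMSO by pin tool and were kept 48 hr at 37 C, 5% CO2. Nuclei were then stained with Hoechst for 40 min and scanned for DNA content.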
# Potency is read from the fitted curve at half-maximal effect.
Compound,Potency,re-replication activation
O=C(Oc1ccc(F)c(F)c1)c1ccc2c(=O)n3c(nc2c1)CCC3,"inconclusive: 29.1 µM [activator, single point]",–
Cn1c(/C=C/c2ccc(Cl)cc2)c([N+](=O)[O-])c(=O)n(C)c1=O,inactive,–
CCN(CC)C(=O)C1CCCN(Cc2cccc(F)c2)C1 (stereo not drawn),inactive,–
COc1ccc(N(C)C(=O)Cc2c(C(=O)O)[nH]c3ccccc23)cc1,"inconclusive: 29.1 µM [activator, single point]",–
COc1cc(CNc2ncc(-c3ccc(Br)cc3)n2C)cc(OC)c1OC,"inconclusive: 29.1 µM [activator, single point]",–
Cc1ccc(OCCn2cc(/C=C(\C#N)C(=O)NCC3CCCO3)c3ccccc32)cc1C (stereo not drawn),"inconclusive: 6.51 µM [activator, single point]",–
Cc1cc(NC(=O)CSc2nc(-c3ccccc3)cs2)no1,inactive,–
COCCCNC(=O)Cn1cc2c(n1)CCC(C)C2 (stereo not drawn),inactive,–
O=C(Nc1ccccc1)c1sc2cc(C(F)(F)F)cnc2c1-c1cccs1,"inconclusive: 29.1 µM [activator, single point]",–
O=C(c1cc(-c2ccc(Br)cc2)nc2ccccc12)N1CCC1,inactive,–
Cc1sc2nc(C3CC3)nc(N3CCN(C(=O)c4ccccc4F)CC3)c2c1C,"inconclusive: 18.4 µM [activator, single point]",–
Clc1cccc(N2CCN(CCCN3CCN(c4ccccc4)CC3)CC2)c1,"inconclusive: 29.1 µM [activator, single point]",–
O=[N+]([O-])c1ccc2[nH]c(O)c(N=Nc3ccc(F)cc3)c2c1,"inconclusive: 23.1 µM [activator, single point]",–
CC1=NN(C(=O)c2ccc(Cn3cc(Br)c([N+](=O)[O-])n3)o2)C(O)(C(F)(F)F)C1 (stereo not drawn),active: 10.3 µM,–
C(C#CCCCCCCCCC[n+]1ccccc1)#CCCCCCCCCC[n+]1ccccc1,"inconclusive: 29.1 µM [activator, single point] and inconclusive: 18.4 µM [activator, single point]",–
Cc1cc(C)n(-c2nc3c(c(=O)[nH]c(=O)n3C)n2CCc2ccccc2)n1,"inconclusive: 18.4 µM [activator, single point]",–
COc1ccc(CCn2c(N)c(C(=O)NCc3ccco3)c3nc4ccccc4nc32)cc1,"inconclusive: 4.11 µM [activator, full curve, poor fit]",–
Cc1cc2nc3c(=O)[nH]c(=S)[nH]c3nc2cc1NC(=O)C(F)(F)F,"inconclusive: 29.1 µM [activator, single point]",–
O=C1NC2(CCCCC2)C(=O)N1c1cccc(Cl)c1,–,inconclusive: 31.5% [activator]
Cc1ccc(S(=O)(=O)N2CCOC2CNC(=O)C(=O)NCCc2ccccc2)cc1 (stereo not drawn),"inconclusive: 0.326 µM [activator, full curve, poor fit]",–
CCCCN(CC)CCCNC(=O)c1ccc(CSc2nc3ccncc3[nH]2)cc1,"inconclusive: 3.26 µM [activator, partial curve, poor fit]",–
O=C(N/N=C(\Cc1ncc[nH]1)c1ccccc1)c1ccncc1,"inconclusive: 1.46 µM [activator, full curve]",–
CN1C(=O)C(=O)N(CC(=O)Nc2ccccc2OC(F)F)C1=O,inactive,–

# Record cards, from the list above.
# O=[N+]([O-])c1ccc2[nH]c(O)c(N=Nc3ccc(F)cc3)c2c1 as listed: Potency: inconclusive: 23.1 µM [activator, single point]
# O=C(c1cc(-c2ccc(Br)cc2)nc2ccccc12)N1CCC1 as listed: Potency: inactive
# Cc1sc2nc(C3CC3)nc(N3CCN(C(=O)c4ccccc4F)CC3)c2c1C as listed: Potency: inconclusive: 18.4 µM [activator, single point]
# COc1cc(CNc2ncc(-c3ccc(Br)cc3)n2C)cc(OC)c1OC as listed: Potency: inconclusive: 29.1 µM [activator, single point]

# Continuation.

Compound,Potency,re-replication activation
CN(C)c1ccc(NC(=O)c2ccc3c(c2)nnn3C)cc1,active: 16.4 µM,–
Cc1ccn2c(NC3CCCCC3)c(-c3cccc(-c4cccc(Cl)c4)c3)nc2c1,"inconclusive: 20.6 µM [activator, partial curve, poor fit]",–
Cc1c(C(=O)Nc2cccnc2)oc2ccc(Br)cc12,"inconclusive: 29.1 µM [activator, single point]",–
CCC1CCCCN1CCCNC(=O)CSc1nc2nc(C)c(Cc3ccccc3Cl)c(C)n2n1 (stereo not drawn),inactive,–
O=C(c1ccc(Br)cc1)c1cc([N+](=O)[O-])ccc1N1CCCCC1,"inconclusive: 0.92 µM [activator, full curve, poor fit]",–
C1COC(NC(C2CC2)C2CC2)=N1,"inconclusive: 13 µM [activator, single point]",–
CN(C)c1ccc(C(=O)c2ccc(N(C)C)c(N)c2)cc1N,"inconclusive: 20.6 µM [activator, single point]",–
Nc1nonc1-c1nc2ccccc2n1Cc1ccc(F)cc1,"inconclusive: 29.1 µM [activator, single point]",–
Cn1nnnc1Sc1ncnc2scc(-c3ccc[nH]3)c12,"inconclusive: 2.91 µM [activator, full curve]",–
COc1cc(S(=O)(=O)NC2CCSc3ccccc32)ccc1NC(C)=O (stereo not drawn),"inconclusive: 29.1 µM [activator, single point]",–
NC(N)=N/N=C/c1ccc(OS(=O)(=O)c2ccccc2)cc1,active: 5.8 µM,–
CCn1ncc(C2=NOC(C(=O)NCc3ccccc3)C2)c1C (stereo not drawn),active: 3.66 µM,–
Nn1cnnc1SCC(=O)N1CCc2ccccc2C1,inactive,–
CC(=O)N1CCC(=NNc2ncc(C(F)(F)F)cc2Cl)CC1,"inconclusive: 29.1 µM [activator, single point]",–
CCCc1nc2sc3c(SCC(=O)NCc4ccco4)ncnc3c2c2c1CCC2,active: 14.6 µM,–
O=C(N/N=C/c1c(O)ccc2ccccc12)c1ccc(CO)nc1,"inconclusive: 0.651 µM [activator, full curve, poor fit]",–
O=C(Oc1c(CN2CCOCC2)cc(Cl)c2cccnc12)c1ccccc1,active: 8.2 µM,–
CC(=O)N1CCc2cc(S(=O)(=O)CCC(=O)NCc3ccc(F)cc3)ccc21,"inconclusive: 18.4 µM [activator, single point]",–
CCCNC(=O)c1ccc2c(=O)c(O)c(-c3ccc(C)cc3)[nH]c2c1,"inconclusive: 2.31 µM [activator, partial curve, poor fit]",–
Clc1ccc2c(N/N=C/c3ccc(Br)cc3)ccnc2c1,active: 18.4 µM,–
O=C(C1CCC(=O)N(C2CCCCCC2)C1)N1CCN(c2ccccc2Cl)CC1 (stereo not drawn),inactive,–
CN(C)c1ccc(C2N(c3ccc(Cl)cc3)C(=O)C3CCCN32)cc1 (stereo not drawn),"inconclusive: 23.1 µM [activator, partial curve, poor fit]",–
Cc1cc(CNC(=O)CC2C(=O)NCCN2Cc2ccccc2)nn1C (stereo not drawn),"inconclusive: 4.11 µM [activator, partial curve, poor fit]",–

Compound,Potency,re-replication activation
CCCC(O)(c1ccc(Cl)cc1)C(CN1CCOCC1)c1ccc(Cl)cc1 (stereo not drawn),"inconclusive: 29.1 µM [activator, single point]",–
Cc1ccc(-c2csc(NC(=O)C3CCN(S(=O)(=O)c4cccs4)CC3)n2)cc1,"inconclusive: 6.51 µM [activator, single point]",–
CCOC(CN=c1nc(N(C)C)ss1)OCC,"inconclusive: 8.2 µM [activator, partial curve, poor fit]",–
Cc1cc(O)c(C(C)C)cc1N=Cc1ccccc1O,"inconclusive: 14.6 µM [activator, single point]",–
Cc1ccccc1NC(=O)Cc1c[nH]c2ccccc12,inactive,–
CCN1C=C(Cc2ccc(OC)cc2)C2=C(C1)C(c1ccc(OC)cc1)C(C#N)=C(N)O2 (stereo not drawn),"inconclusive: 29.1 µM [activator, partial curve, poor fit]",–
CCN(CC)C(=O)/C(=C/c1cn(S(=O)(=O)N(C)C)c2ccccc12)NC(=O)c1ccc(OC)cc1,"inconclusive: 11.6 µM [activator, partial curve, poor fit]",–
COc1cc(/C=C/C(=O)Nc2ccc3[nH]c(=O)[nH]c3c2)cc(OC)c1OC,inactive,–
Cc1cc(C(=O)NCC(c2cccs2)N2CCOCC2)ccc1[N+](=O)[O-] (stereo not drawn),"inconclusive: 29.1 µM [activator, single point]",–
O=C(NCCc1ccccn1)c1cc(-c2ccc(Cl)c(Cl)c2Cl)nc2ccccc12,inactive,–
Cc1cccc(N2CCN(C(=O)CC(NC(=O)c3ccccc3Cl)c3ccccc3)CC2)c1C (stereo not drawn),"inconclusive: 29.1 µM [activator, single point]",–
CNc1ccc(Br)cc(C(=O)/C=C/c2cc(OC)ccc2OC)c1=O,"inconclusive: 18.4 µM [activator, single point]",–
COC(=O)Cc1c(C)c2ccc(OC3CCCCC3=O)c(C)c2oc1=O (stereo not drawn),inactive,–
O=C(c1ccc(CN2CCc3ccccc3C2)cc1)N1CCN(c2ccccc2)CC1,inactive,–
O=C1NN(c2ccccc2)C(=O)/C1=C\c1coc2ccc(O)cc2c1=O,"inconclusive: 18.4 µM [activator, single point]",–
COc1ccc(NC(=O)c2ccsc2NC(C)=O)cc1,"inconclusive: 6.51 µM [activator, single point]",–
COc1ccc(NC(=O)N/C=C/c2ccccc2)cc1,"inconclusive: 16.4 µM [activator, partial curve, poor fit]",–
C=CCNC(=S)NNC(=O)c1ccc(OCC)cc1,"inconclusive: 14.6 µM [activator, partial curve]",–
CCOC(=O)Nc1ccc2c(c1)N(C(=O)OC)c1ccccc1CC2,"inconclusive: 23.1 µM [activator, single point]",–
CC(=O)Nc1cccc(NC(=O)CSc2nc3c(=O)n(C)c(=O)n(C)c3n2C)c1,"inconclusive: 16.4 µM [activator, single point]",–
Cn1c(/C(C#N)=C(\O)c2ccccc2Cl)nc2ccccc21,"inconclusive: 29.1 µM [activator, partial curve, poor fit]",–
CCOC(=O)C1CCCN(CCC(=O)Nc2ccc3c(c2)CCC3)C1 (stereo not drawn),"inconclusive: 23.1 µM [activator, single point]",–
